This note sets out measurements from patent US20030108462A1, “Method of extracting contaminants from solid matter” (priority 2001, published 2003).

Data set [1] in a line: Chelating-agent leaching of comminuted CCA treated wood, chromium. To be noted: initial wood 3380 mg/kg; for Chromium in leachate: LIQUID, leachate from treated wood; for Chromium in processed solids: WOOD after leaching. How it is done: (§1) 32 grams of the comminuted treated wood was used to represent 1 mole of the contaminants, and was reacted with 1000 ml of 0.1 mole ethylenediamine-N,N,N′,N′-tetraacetic acid at a temperature of 70° C. for a period of 6 hours. The sample was agitated and allowed to settle periodically to thoroughly mix the wood and the solution, as well as to facilitate leaching. After the last settling period, the mixture stratified into a green colored supernatant which contained the chelated CCA components in soluble form at the top, and clean looking sawdust at the bottom of the reaction container.
(§2) Upon completion of reaction, the supernatant was decanted and retained. The solid section was allowed to drain freely for 15 minutes, after which 500 ml of fresh water was added and the mixture was periodically mixed and allowed to settle for a period of 30 minutes. Similarly, the mixture stratified into a light green solution and cleaner looking saw dust. The liquid was decanted and added to the previously decanted liquid. The settled solids were wrapped in a 250μ filter paper and subjected to a weight of 6 pounds per square inch and allowed to drain. Upon completion, the drained liquid was added to the previously decanted liquids and sent for laboratory analysis. The retained solids were oven dried and analyzed for the target contaminants.
(§3) 100 grams of the comminuted treated wood was used to represent 1 mole of the contaminants and reacted with 1000 mL of 0.1 mole EDTA disodium solution at 30° C. for 30 hours. The sample was agitated and settled periodically to thoroughly mix the wood and the solution, as well as to facilitate leaching. After the last settling period, the mixture stratified into a green colored supernatant which contained the chelated CCA components in soluble form at the top, and clean looking sawdust at the bottom of the reaction container.
as §2, with “liquid and was sent for analysis.” for “liquid.”
(§4) 100 grams of comminuted treated wood was used to represent 1 mole of contaminants, and reacted with 1000 ml of 0.01 mole of EDTA Free Acid solution at 70° C. for 6 hours. The sample was agitated and allowed to settle periodically to thoroughly mix the wood and the solution, as well as to facilitate leaching. After the last settling period, the mixture stratified into a green colored supernatant which contained the chelated CCA components in soluble form at the top, and clean looking sawdust at the bottom of the reaction container.
as §2, with “retained” for “retained.”, “water with a known quality” for “water”, “liquid and was sent for analysis.” for “liquid.”

Data set [2] can be described thus: Chelating-agent leaching of comminuted CCA treated wood, copper. To be noted: initial wood 1991 mg/kg; for Copper in leachate: LIQUID, leachate from treated wood; for Copper in processed solids: WOOD after leaching. How it is done: as §1, §2, §3
as §2, with “liquid and was sent for analysis.” for “liquid.”
as §4
as §2, with “retained” for “retained.”, “water with a known quality” for “water”, “liquid and was sent for analysis.” for “liquid.”

Take `O=C([O-])CN(CCN(CC(=O)[O-])CC(=O)O)CC(=O)O.[Na+].[Na+]` [EXAMPLE 2, EDTA disodium]: in data set [1], the Chromium in leachate was 5.67 mg/L and the “Chromium in processed solids” value was 309 mg/kg. Further, in data set [2], the Copper in leachate was determined as 69.60 mg/L and the “Copper in processed solids” value worked out at 32.83 mg/kg.
In the case of `O=C(O)CN(CCN(CC(=O)O)CC(=O)O)CC(=O)O` [EXAMPLE 3, EDTA Free Acid], in data set [1], the Chromium in leachate was determined as 19.60 mg/L and the “Chromium in processed solids” value turned out to be 308 mg/kg. In addition, in data set [2], the Copper in leachate is 40 mg/L and the “Copper in processed solids” value came out at 4.88 mg/kg.
For the molecule `O=C(O)CN(CCN(CC(=O)O)CC(=O)O)CC(=O)O` [EXAMPLE 1, ethylenediamine-N,N,N′,N′-tetraacetic acid], in data set [1], the Chromium in leachate came out at 4.0 mg/L and the “Chromium in processed solids” value is recorded as 525 mg/kg. In addition, in data set [2], the Copper in leachate was found to be 79 mg/L and the “Copper in processed solids” value came out at 88.73 mg/kg.
